Measurements as given in paper PMC5414350.
Results are given in words; binding and its absence hold for the method and conditions named. Some binding calls cover weakened binding; strength is not graded here.

Molecular target: Ms2 (=PG5_(P1593S)) protein (Triticum aestivum (common wheat))
Test: two-hybrid; pairwise yeast two-hybrid with AD (pGADT7) and BD (pGBKT7) fusions; DDO, TDO and QDO media

binding: binds
Substance: Ms2 (=PG5_(P1593S)) protein (from UniProt A0A1D5Y5U2 1-293)
